# This is one part of the list.
# Chains of the proteins cited; added tags and fusions are not shown. Lines headed by an entry give the natural chain unless they say otherwise; changes in a name come on top.
# UniProt Q9Y281, whole entry, looked up: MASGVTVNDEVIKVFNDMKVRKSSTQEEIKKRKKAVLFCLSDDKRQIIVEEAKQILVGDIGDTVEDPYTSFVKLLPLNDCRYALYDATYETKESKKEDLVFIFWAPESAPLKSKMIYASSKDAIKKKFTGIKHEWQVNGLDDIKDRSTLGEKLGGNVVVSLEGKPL
# UniProt Q9H444: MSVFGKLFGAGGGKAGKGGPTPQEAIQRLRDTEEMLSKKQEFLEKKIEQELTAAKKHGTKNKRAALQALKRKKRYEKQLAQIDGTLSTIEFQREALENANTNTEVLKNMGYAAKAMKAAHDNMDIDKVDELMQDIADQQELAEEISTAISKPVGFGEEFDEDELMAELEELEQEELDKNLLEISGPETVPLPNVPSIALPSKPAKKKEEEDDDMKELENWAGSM
# UniProt Q5VT25: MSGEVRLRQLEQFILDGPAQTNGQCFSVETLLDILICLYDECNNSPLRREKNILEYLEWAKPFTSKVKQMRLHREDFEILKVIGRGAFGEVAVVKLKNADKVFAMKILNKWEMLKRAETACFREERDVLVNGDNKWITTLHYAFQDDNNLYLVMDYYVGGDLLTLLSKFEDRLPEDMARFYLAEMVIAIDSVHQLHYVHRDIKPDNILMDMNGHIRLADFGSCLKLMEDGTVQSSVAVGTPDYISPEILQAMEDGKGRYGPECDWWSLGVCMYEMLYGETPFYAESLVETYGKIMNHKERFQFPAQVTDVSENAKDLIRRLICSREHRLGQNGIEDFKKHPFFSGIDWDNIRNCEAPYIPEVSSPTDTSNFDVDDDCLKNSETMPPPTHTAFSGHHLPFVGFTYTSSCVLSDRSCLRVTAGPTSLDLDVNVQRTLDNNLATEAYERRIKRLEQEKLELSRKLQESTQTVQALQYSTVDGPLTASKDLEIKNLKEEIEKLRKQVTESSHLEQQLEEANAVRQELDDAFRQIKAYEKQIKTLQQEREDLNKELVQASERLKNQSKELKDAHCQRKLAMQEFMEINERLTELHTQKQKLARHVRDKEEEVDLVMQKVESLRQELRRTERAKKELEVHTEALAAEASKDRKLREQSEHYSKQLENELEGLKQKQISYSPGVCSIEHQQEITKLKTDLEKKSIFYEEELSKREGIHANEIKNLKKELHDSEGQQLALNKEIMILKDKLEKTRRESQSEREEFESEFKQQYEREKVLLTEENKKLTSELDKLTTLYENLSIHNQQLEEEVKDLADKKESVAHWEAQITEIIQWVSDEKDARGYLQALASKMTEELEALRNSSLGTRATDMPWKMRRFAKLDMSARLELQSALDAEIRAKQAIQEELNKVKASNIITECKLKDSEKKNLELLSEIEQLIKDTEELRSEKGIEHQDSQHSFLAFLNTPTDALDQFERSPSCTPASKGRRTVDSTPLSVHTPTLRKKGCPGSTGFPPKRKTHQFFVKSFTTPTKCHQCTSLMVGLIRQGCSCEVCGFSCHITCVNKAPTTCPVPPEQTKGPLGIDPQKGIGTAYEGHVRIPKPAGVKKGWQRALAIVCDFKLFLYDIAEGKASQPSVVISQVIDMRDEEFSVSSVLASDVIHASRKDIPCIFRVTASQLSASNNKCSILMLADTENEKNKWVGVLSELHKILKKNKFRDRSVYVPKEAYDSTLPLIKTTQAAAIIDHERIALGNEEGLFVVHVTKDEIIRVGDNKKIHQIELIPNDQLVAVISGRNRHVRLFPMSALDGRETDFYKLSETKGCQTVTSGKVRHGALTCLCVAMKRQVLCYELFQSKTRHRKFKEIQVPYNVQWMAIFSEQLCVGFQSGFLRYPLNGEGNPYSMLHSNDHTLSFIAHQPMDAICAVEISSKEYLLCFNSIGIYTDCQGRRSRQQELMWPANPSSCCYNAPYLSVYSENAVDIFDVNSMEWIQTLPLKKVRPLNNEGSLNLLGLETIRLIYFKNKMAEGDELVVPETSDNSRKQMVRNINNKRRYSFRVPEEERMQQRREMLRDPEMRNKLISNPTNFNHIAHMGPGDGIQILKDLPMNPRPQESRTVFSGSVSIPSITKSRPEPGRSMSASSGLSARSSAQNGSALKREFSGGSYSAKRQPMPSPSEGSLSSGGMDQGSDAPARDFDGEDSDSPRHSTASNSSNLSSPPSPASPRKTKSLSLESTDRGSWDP
# UniProt Q9NXV6: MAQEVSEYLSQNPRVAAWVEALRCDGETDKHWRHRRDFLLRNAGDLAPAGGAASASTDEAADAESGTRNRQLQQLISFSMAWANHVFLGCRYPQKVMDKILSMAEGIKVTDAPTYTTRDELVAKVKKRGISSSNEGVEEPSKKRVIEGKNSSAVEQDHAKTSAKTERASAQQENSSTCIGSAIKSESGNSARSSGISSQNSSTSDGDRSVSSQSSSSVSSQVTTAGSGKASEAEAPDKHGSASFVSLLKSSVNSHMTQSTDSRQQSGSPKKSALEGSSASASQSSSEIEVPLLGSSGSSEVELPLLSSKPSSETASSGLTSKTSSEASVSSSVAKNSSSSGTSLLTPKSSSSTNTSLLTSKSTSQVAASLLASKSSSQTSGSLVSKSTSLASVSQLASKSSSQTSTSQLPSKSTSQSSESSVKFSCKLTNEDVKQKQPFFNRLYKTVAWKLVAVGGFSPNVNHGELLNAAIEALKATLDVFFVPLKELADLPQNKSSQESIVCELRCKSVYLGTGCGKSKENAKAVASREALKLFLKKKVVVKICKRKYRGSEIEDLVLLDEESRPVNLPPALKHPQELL
# UniProt O14519: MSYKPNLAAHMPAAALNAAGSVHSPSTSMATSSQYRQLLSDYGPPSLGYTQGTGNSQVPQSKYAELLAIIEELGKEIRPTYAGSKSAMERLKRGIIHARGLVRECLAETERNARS
# UniProt P41208: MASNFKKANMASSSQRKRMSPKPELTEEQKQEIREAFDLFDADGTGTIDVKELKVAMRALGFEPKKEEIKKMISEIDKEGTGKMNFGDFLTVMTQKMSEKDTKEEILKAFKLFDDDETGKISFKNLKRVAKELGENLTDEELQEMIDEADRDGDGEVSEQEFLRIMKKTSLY
# UniProt Q00536: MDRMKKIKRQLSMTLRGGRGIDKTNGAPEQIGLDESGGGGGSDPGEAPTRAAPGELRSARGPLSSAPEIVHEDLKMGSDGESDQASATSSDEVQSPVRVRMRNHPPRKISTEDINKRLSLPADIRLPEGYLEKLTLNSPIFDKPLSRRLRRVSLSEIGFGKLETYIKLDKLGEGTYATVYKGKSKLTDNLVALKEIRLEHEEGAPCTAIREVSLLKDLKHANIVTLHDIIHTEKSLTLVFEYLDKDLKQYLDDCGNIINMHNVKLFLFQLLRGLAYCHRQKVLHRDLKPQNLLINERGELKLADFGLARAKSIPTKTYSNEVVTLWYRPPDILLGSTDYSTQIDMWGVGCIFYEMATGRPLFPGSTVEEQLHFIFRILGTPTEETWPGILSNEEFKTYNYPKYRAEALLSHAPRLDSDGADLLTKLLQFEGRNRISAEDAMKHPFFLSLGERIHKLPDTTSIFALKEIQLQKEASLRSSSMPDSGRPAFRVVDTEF
# UniProt Q96JM3: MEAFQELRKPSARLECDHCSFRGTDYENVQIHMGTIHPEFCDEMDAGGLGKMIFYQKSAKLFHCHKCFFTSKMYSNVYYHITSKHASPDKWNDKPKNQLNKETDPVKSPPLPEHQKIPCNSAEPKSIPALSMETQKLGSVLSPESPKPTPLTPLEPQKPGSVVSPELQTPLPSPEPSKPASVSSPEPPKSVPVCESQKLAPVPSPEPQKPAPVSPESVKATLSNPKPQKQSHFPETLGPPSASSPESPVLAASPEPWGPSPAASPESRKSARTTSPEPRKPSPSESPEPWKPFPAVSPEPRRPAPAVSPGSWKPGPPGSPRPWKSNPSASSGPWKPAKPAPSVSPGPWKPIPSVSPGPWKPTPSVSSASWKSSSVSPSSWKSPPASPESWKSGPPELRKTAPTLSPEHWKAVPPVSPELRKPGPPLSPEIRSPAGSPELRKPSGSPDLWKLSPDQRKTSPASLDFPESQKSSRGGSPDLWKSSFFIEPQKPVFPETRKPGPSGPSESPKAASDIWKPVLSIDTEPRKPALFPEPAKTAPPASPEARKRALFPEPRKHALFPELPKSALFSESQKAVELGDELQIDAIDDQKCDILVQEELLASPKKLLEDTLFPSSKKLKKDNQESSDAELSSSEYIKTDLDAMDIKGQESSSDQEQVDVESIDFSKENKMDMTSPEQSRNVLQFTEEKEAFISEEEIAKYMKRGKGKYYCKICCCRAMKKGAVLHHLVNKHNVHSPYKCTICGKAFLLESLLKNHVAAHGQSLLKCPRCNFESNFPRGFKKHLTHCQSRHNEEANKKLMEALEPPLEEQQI
# UniProt P49336: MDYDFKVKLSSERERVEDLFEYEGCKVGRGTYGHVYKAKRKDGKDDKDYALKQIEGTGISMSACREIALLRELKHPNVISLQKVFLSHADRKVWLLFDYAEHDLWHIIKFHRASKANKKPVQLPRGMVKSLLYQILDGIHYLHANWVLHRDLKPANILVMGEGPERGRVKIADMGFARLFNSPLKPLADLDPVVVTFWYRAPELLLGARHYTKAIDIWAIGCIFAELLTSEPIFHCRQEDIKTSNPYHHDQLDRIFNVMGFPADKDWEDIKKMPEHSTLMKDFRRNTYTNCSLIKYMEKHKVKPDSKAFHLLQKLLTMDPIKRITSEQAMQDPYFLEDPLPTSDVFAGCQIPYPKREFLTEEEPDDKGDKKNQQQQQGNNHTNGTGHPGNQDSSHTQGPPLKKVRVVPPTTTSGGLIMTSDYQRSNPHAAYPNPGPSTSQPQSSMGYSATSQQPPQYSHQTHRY
# UniProt Q00534, whole entry, looked up: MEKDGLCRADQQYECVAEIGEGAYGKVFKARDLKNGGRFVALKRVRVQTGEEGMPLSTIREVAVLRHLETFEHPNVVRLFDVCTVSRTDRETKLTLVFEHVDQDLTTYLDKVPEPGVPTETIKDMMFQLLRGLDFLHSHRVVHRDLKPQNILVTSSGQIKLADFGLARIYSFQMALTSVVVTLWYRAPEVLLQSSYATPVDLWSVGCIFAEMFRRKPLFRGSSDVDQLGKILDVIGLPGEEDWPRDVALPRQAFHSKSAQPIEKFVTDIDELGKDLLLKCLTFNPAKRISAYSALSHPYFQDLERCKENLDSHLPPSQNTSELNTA
# UniProt O75419: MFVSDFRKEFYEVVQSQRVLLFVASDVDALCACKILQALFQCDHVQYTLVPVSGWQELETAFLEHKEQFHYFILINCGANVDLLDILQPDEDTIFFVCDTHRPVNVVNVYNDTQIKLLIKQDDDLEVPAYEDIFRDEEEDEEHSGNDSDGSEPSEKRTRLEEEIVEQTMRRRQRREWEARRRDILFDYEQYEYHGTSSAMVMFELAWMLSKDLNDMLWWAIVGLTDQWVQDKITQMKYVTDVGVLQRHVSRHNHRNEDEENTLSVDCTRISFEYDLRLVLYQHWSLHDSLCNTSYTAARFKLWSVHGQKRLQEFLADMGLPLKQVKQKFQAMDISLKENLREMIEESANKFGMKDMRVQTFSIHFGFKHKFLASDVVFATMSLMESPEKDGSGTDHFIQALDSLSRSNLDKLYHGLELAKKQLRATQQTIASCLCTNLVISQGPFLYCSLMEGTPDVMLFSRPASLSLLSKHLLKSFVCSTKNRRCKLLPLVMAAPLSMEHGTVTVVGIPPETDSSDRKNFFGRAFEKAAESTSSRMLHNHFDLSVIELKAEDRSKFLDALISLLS
# UniProt P33151: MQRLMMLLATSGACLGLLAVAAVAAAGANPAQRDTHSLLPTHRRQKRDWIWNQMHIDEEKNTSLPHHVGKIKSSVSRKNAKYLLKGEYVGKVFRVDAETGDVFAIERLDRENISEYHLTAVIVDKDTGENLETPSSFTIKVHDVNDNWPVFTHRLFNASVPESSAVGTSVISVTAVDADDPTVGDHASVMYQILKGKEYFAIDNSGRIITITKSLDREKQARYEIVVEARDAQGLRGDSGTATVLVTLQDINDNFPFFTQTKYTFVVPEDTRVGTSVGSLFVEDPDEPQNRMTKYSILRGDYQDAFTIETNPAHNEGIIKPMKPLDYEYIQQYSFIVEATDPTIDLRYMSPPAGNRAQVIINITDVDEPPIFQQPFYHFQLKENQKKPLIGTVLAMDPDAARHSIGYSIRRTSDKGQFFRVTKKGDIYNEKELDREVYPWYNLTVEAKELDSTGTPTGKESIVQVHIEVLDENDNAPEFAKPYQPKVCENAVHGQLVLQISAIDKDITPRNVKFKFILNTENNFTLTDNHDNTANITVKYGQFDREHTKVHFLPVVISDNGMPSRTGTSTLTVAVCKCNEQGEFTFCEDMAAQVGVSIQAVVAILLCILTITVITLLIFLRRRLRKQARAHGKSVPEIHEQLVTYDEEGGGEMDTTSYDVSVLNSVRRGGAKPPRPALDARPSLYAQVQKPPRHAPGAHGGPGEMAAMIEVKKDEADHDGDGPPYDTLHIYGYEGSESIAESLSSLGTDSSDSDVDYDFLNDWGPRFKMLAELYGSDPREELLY
# UniProt Q9Y6H1: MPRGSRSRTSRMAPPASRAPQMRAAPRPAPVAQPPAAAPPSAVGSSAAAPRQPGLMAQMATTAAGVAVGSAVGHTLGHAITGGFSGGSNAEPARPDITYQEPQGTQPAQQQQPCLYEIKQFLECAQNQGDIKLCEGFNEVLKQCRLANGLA
# Key:
# Experiment in all cases: log2 fold change, soluble protein after heating vs DMSO (PISA); higher = thermal stabilisation; K562 cells, 10 uM, 30 min; active = over 0.2 and 3.5 SD of the protein, either way, in both replicates (recomputed)
# [1] = compound: CC[C@@H]1C(=O)N(C)c2cnc(Nc3ccc(C(=O)NC4CCN(C)CC4)cc3OC)nc2N1C1CCCC1
# Outline: (§1)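 K562 cells at 2×10^6 cells/mL were treated with 10 μM compound for 30 min. Aliquots were heated for 3 min across 48°C-58°C, pooled, and extracted in PBS with 0.5% NP-40 at 4°C; soluble protein was the supernatant after 21,000xg for 90 min. Soluble protein was quantified by TMTpro 16plex LC-MS/MS with channel sums equalised, and reported as log2 fold change in thermal stability against DMSO controls, with values from duplicates.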
# [2] = compound: CC[C@@H]1C(=O)N(C)c2cnc(Nc3ccc(C(=O)N[C@H]4CC[C@H](N5CCN(CC6CC6)CC5)CC4)cc3OC)nc2N1C(C)C [volasertib]
# Outline: as §1
# [3] = compound: CC[C@H](C)N1C=C(C2=C(C=C(C=C21)C3=CN=C(C=C3)N4CCNCC4)C(=O)NCC5=C(C=C(NC5=O)C)C)C
# Outline: as §1
# [4] = compound: CC[C@H](C)[C@@H](C(=O)N[C@@H]([C@@H](C)O)C(=O)N[C@@H](CC(C)C)C(=O)[C@]1(CO1)C)NC(=O)[C@H]([C@@H](C)CC)N(C)C(=O)C [epoxomicin]
# Outline: as §1
# [5] = compound: CCn1cc(-c2ccnc3[nH]c(-c4cccc(CN(C)C)c4)cc23)c(-c2ccc(NC(=O)N(C)C)cc2)n1
# Outline: as §1
# [6] = compound: CN(C)CC(=O)Nc1ccc2[nH]c(=O)c3ccccc3c2c1
# Outline: as §1
# [7] = compound: CN1C2=C(C3=C1C(=O)N(N=C3)CC4=CC(=CC=C4)N)SC(=C2)S(=O)C
# Outline: as §1
# [8] = compound: CN1CCC(CNc2ccc3ncc(-c4cccc(OC(F)(F)F)c4)n3n2)CC1
# Outline: as §1
# [9] = compound: CN1CCN(CCOc2cc(OC3CCOCC3)c3c(Nc4c(Cl)ccc5c4OCO5)ncnc3c2)CC1 [saracatinib]
# Outline: as §1
# [10] = compound: CN1CCN(c2nc(C3=C(c4c[nH]c5ccccc45)C(=O)NC3=O)c3ccccc3n2)CC1 [sotrastaurin]
# Outline: as §1
# [11] = compound: CN1CCc2c(c3ccccc3n2Cc2ccc(C(=O)NO)cc2)C1 [Tubastatin A]
# Outline: as §1
# [12] = compound: CNC(=O)C1=CC=CC=C1NC2=NC(=NC=C2Cl)NC3=C(C=C(C=C3)N4CCOCC4)OC
# Outline: as §1
# [13] = compound: CNC(=O)c1ccc(Nc2ncc(C(F)(F)F)c(NCc3nccnc3N(C)S(C)(=O)=O)n2)cc1 [defactinib]
# Outline: as §1
# [14] = compound: CNCc1ccc(-c2[nH]c3cc(F)cc4c3c2CCNC4=O)cc1 [rucaparib]
# Outline: as §1
# [15] = compound: CNc1nc(-c2ccc3c(N)n[nH]c3c2)cc(N2C[C@@H](C(=O)NC3CCCCC3)CC[C@H]2C)n1
# Outline: as §1
# [16] = compound: COC(=O)N[C@@H](C)CNc1nccc(-c2cn(C(C)C)nc2-c2cc(Cl)cc(NS(C)(=O)=O)c2F)n1 [encorafenib]
# Outline: as §1
# [17] = compound: COC(=O)[C@H](CCSC)NC(=O)C1=C(C=C(C=C1)NC[C@H](CS)N)C2=CC=CC=C2
# Outline: as §1
# [18] = compound: CCn1c(C(=O)N(C2CC2)C2CC2)cc2c3c(ncn3C)c(Nc3cc(C)n(C)n3)nc21
# Outline: as §1
# [19] = compound: CN1CC[C@H](c2c(O)cc(O)c3c(=O)cc(-c4ccccc4Cl)oc23)[C@H](O)C1 [alvocidib]
# Outline: as §1
# [20] = compound: CN(CCOC1=CC=C(C=C1)C[C@H]2C(=O)NC(=O)S2)C3=CC=CC=N3 (racemic) [rosiglitazone]
# Outline: as §1
Target,log2 fold change [1],log2 fold change [2],log2 fold change [3],log2 fold change [4],log2 fold change [5],log2 fold change [6],log2 fold change [7],log2 fold change [8],log2 fold change [9],log2 fold change [10],log2 fold change [11],log2 fold change [12],log2 fold change [13],log2 fold change [14],log2 fold change [15],log2 fold change [16],log2 fold change [17],log2 fold change [18],log2 fold change [19],log2 fold change [20]
CETN3 (UniProt O15182),inactive: 0.037,inactive: -0.028,inactive: 0.006,inactive: 0.042,inactive: -0.014,inactive: -0.043,inactive: -0.013,active: -0.287,inactive: -0.027,inactive: -0.022,inactive: 0.015,inactive: 0.128,inactive: -0.008,inactive: -0.006,inactive: -0.003,inactive: -0.021,inactive: 0.082,–,–,–
CEP97 isoform 2 (UniProt Q8IW35),inactive: -0.021,inactive: -0.258,inactive: 0.044,inactive: -0.071,–,inactive: 0.104,inactive: 0.148,–,inactive: -0.053,inactive: -0.057,inactive: 0.118,inactive: 0.009,inactive: -0.042,inactive: 0.144,inactive: -0.11,inactive: -0.038,inactive: -0.07,inactive: -0.041,inactive: 0.016,–
CFL2 (UniProt Q9Y281),inactive: 0.001,inactive: 0.047,inactive: -0.041,inactive: -0.098,inactive: -0.065,inactive: -0.016,inactive: -0.086,inactive: 0.122,inactive: 0.092,inactive: 0.021,inactive: 0.036,inactive: 0.027,inactive: -0.028,inactive: -0.039,inactive: -0.041,inactive: -0.017,inactive: 0.006,inactive: -0.01,inactive: -0.086,inactive: -0.003
CELF2 isoform 3 (UniProt O95319),inactive: 0.115,inactive: -0.028,inactive: 0.02,inactive: 0.018,inactive: 0.103,inactive: 0.006,inactive: -0.04,inactive: 0.111,inactive: -0.011,inactive: 0.076,inactive: -0.102,inactive: -0.034,inactive: 0.098,inactive: 0.125,inactive: -0.099,inactive: -0.041,inactive: -0.032,–,–,–
CHMP4B (UniProt Q9H444),inactive: -0.05,inactive: 0.062,inactive: -0.044,inactive: -0.008,inactive: -0.065,inactive: -0.053,inactive: -0.057,inactive: -0.033,inactive: 0.021,inactive: -0.061,inactive: -0.024,inactive: -0.026,inactive: -0.017,inactive: 0.02,inactive: -0.019,inactive: -0.055,inactive: 0.054,–,–,–
CDK5RAP1 (UniProt Q96SZ6),inactive: -0.119,inactive: -0.064,inactive: 0.071,inactive: 0.033,inactive: -0.086,inactive: -0.006,inactive: -0.074,active: -0.254,inactive: 0.192,inactive: 0.072,active: -0.238,inactive: 0.044,inactive: 0.022,inactive: 0.035,inactive: 0.057,inactive: 0.053,inactive: -0.048,–,–,–
CDC42BPA isoform 6 (UniProt Q5VT25),inactive: -0.021,active: -0.86,inactive: 0.053,inactive: 0.001,inactive: 0,inactive: 0.042,inactive: 0.078,inactive: -0.359,inactive: -0.093,active: -0.47,inactive: 0.022,inactive: -0.037,inactive: -0.183,inactive: 0.088,inactive: -0.031,inactive: 0.06,inactive: -0.064,–,active: -0.688,–
CDKN2AIP (UniProt Q9NXV6),inactive: 0.096,inactive: 0.057,inactive: -0.001,inactive: 0.095,inactive: 0.008,inactive: 0.046,inactive: 0.03,inactive: 0.094,inactive: 0.057,inactive: 0.023,inactive: 0.013,inactive: 0.052,inactive: 0.055,inactive: -0.055,inactive: 0.033,inactive: 0.02,inactive: -0.029,–,–,–
CDK2AP1 (UniProt O14519),inactive: 0.057,inactive: -0.081,inactive: 0.078,inactive: 0.013,inactive: 0.101,–,–,inactive: 0.127,–,inactive: -0.11,–,inactive: -0.045,–,inactive: -0.1,–,inactive: -0.014,–,inactive: 0.033,–,inactive: 0.172
CETN2 (UniProt P41208),inactive: 0.149,inactive: 0.159,inactive: -0.006,inactive: -0.074,inactive: 0.065,inactive: -0.058,inactive: -0.018,inactive: 0.037,inactive: 0.095,inactive: 0.077,inactive: -0.128,inactive: -0.03,inactive: -0.054,inactive: 0.031,inactive: 0.058,inactive: -0.079,inactive: 0.06,–,–,–
CDK16 isoform 2 (UniProt Q00536),inactive: -0.049,inactive: -0.316,inactive: -0.014,inactive: 0.02,inactive: 0.001,inactive: 0.041,inactive: -0.074,inactive: 0.135,inactive: -0.014,inactive: 0.246,inactive: 0.014,inactive: 0.027,inactive: 0.236,inactive: 0.278,inactive: -0.102,inactive: 0.016,inactive: -0.146,–,–,–
CHAMP1 (UniProt Q96JM3),inactive: -0.035,active: -0.357,inactive: 0.181,inactive: 0.016,inactive: -0.095,inactive: 0.014,inactive: 0.038,inactive: -0.302,inactive: 0.103,inactive: -0.007,inactive: -0.036,inactive: -0.064,inactive: -0.104,inactive: 0.053,inactive: -0.001,inactive: 0.048,inactive: 0.049,–,–,–
CEP128 (UniProt Q6ZU80),inactive: -0.009,inactive: -0.09,–,–,–,inactive: -0.11,inactive: 0.039,–,inactive: -0.092,inactive: -0.022,inactive: 0.024,–,inactive: 0.027,inactive: -0.306,inactive: -0.22,inactive: 0.061,inactive: 0.044,–,–,–
CDC42BPB (UniProt Q9Y5S2),inactive: 0.171,inactive: 0.051,inactive: -0.105,inactive: -0.065,inactive: 0.062,inactive: 0.046,inactive: 0.048,inactive: -0.195,inactive: -0.089,inactive: -0.152,inactive: 0.055,inactive: 0.021,inactive: -0.119,inactive: 0.146,inactive: -0.046,inactive: -0.029,inactive: -0.032,–,–,–
CDK8 (UniProt P49336),inactive: 0.096,inactive: -0.039,–,inactive: -0.098,inactive: -0.236,inactive: -0.044,inactive: -0.025,inactive: 0.356,inactive: -0.006,inactive: 0.074,inactive: -0.1,inactive: 0.053,inactive: -0.059,inactive: 0.192,inactive: 0.018,inactive: -0.002,inactive: 0.064,–,active: 0.66,–
CDK6 (UniProt Q00534),inactive: -0.027,inactive: -0.03,inactive: 0.007,inactive: 0.088,inactive: 0.014,inactive: 0.007,inactive: 0.062,inactive: -0.1,inactive: 0.002,inactive: -0.005,inactive: 0.022,inactive: 0.016,inactive: -0.029,inactive: 0.065,inactive: -0.02,inactive: 0.011,inactive: 0.004,–,–,–
CDC45 isoform 3 (UniProt O75419),inactive: -0.254,inactive: -0.329,inactive: 0.264,inactive: -0.105,inactive: 0.031,–,inactive: 0.137,inactive: -0.116,inactive: -0.313,inactive: -0.28,inactive: 0.15,–,–,inactive: -0.051,inactive: 0.17,inactive: 0.243,–,–,inactive: -0.251,–
CEP170B (UniProt Q9Y4F5),inactive: 0.095,–,–,inactive: -0.135,inactive: 0.143,inactive: -0.006,inactive: 0.111,inactive: -0.078,inactive: -0.022,inactive: -0.081,–,–,inactive: 0.112,inactive: 0.234,inactive: 0.13,inactive: 0.095,inactive: -0.016,–,–,inactive: -0.039
CDH5 (UniProt P33151),inactive: 0.175,–,–,inactive: -0.184,–,–,–,–,–,inactive: 0.015,–,inactive: 0.154,–,inactive: 0.127,–,inactive: -0.159,–,inactive: 0.225,–,–
CHCHD2 (UniProt Q9Y6H1),inactive: 0.04,inactive: 0.103,inactive: -0.034,inactive: 0.026,inactive: -0.055,inactive: -0.004,inactive: -0.058,inactive: 0.044,inactive: 0,inactive: -0.031,inactive: -0.058,inactive: 0.087,inactive: -0.002,inactive: -0.065,inactive: -0.049,inactive: -0.01,inactive: 0.061,–,–,–

# Another view of part of the listing above:
Target | log2 fold change [1] | log2 fold change [2] | log2 fold change [3] | log2 fold change [4] | log2 fold change [5] | log2 fold change [6] | log2 fold change [7] | log2 fold change [8] | log2 fold change [9] | log2 fold change [10] | log2 fold change [11] | log2 fold change [12] | log2 fold change [13] | log2 fold change [14] | log2 fold change [15] | log2 fold change [16] | log2 fold change [17] | log2 fold change [18] | log2 fold change [19] | log2 fold change [20]
CDK8 (UniProt P49336) | inactive: 0.096 | inactive: -0.039 | – | inactive: -0.098 | inactive: -0.236 | inactive: -0.044 | inactive: -0.025 | inactive: 0.356 | inactive: -0.006 | inactive: 0.074 | inactive: -0.1 | inactive: 0.053 | inactive: -0.059 | inactive: 0.192 | inactive: 0.018 | inactive: -0.002 | inactive: 0.064 | – | active: 0.66 | –
CDK6 (UniProt Q00534) | inactive: -0.027 | inactive: -0.03 | inactive: 0.007 | inactive: 0.088 | inactive: 0.014 | inactive: 0.007 | inactive: 0.062 | inactive: -0.1 | inactive: 0.002 | inactive: -0.005 | inactive: 0.022 | inactive: 0.016 | inactive: -0.029 | inactive: 0.065 | inactive: -0.02 | inactive: 0.011 | inactive: 0.004 | – | – | –
CDC45 isoform 3 (UniProt O75419) | inactive: -0.254 | inactive: -0.329 | inactive: 0.264 | inactive: -0.105 | inactive: 0.031 | – | inactive: 0.137 | inactive: -0.116 | inactive: -0.313 | inactive: -0.28 | inactive: 0.15 | – | – | inactive: -0.051 | inactive: 0.17 | inactive: 0.243 | – | – | inactive: -0.251 | –
CEP170B (UniProt Q9Y4F5) | inactive: 0.095 | – | – | inactive: -0.135 | inactive: 0.143 | inactive: -0.006 | inactive: 0.111 | inactive: -0.078 | inactive: -0.022 | inactive: -0.081 | – | – | inactive: 0.112 | inactive: 0.234 | inactive: 0.13 | inactive: 0.095 | inactive: -0.016 | – | – | inactive: -0.039
